PubChem BioAssay AID652272, Drosophila RNAi Screening Center, 2013

- Screen: 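Genome-wide knock-down search for components of Hedgehog signalling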 (primary screen)
- Cell system: Drosophila clone 8 (Cl8) cells
- Reagent: long dsRNA against Drosophila genes
- Measured: 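Firefly light from a Hedgehog-responsive ptc promoter reporter and Renilla reference light, both read on a plate reader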
- Scale: firefly Hh reporter signal: higher = more ptc reporter light; Renilla reference signal: higher = more Renilla control light
- Hit rule: 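Hit when the z-score averaged over two replicates is under -2 or over +3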
- Calls: active = hit: reporter lowered or raised; inactive = not a hit
The screen tested about 21,000 reagents; this is an unselected part of those that have a named target and a result. Over the whole deposit, 503 (2.4%) got an active call. 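Raw plate light values, not normalised; calls rest on replicate z-scores that were not deposited; hits include reporter decreases as well as increases.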 Reagent sequences are not shown. Not given: the amount of reagent, the time to read-out.

no.	gene	DRSC id	firefly Hh reporter signal, replicate 1	firefly Hh reporter signal, replicate 2	firefly Hh reporter signal, replicate 3	Renilla reference signal, replicate 1	Renilla reference signal, replicate 2	call
1	Cpr50Ca	DRSC05454	1.36e5	3.36e5		11828	12657	inactive
2	Cpr50Ca	DRSC06372	1.12e5	67754		3032	4768	inactive
3	Cpr50Ca	DRSC06375	98597	64464		2299	4917	inactive
4	CG1620	DRSC06603	1.45e5	96011		5040	3036	inactive
5	Got1	DRSC07177	1.46e5	95212		5430	3498	inactive
6	Dyb	DRSC07208	1.55e5	6.16e5	1.07e5	6368	38131	inactive
7	Xpac	DRSC18730	79061	2.05e5		2920	8269	inactive

A portion of the results above, as a working copy:
no.	gene	DRSC id	firefly Hh reporter signal, replicate 1	firefly Hh reporter signal, replicate 2	firefly Hh reporter signal, replicate 3	Renilla reference signal, replicate 1	Renilla reference signal, replicate 2	call
6	Dyb	DRSC07208	1.55e5	6.16e5	1.07e5	6368	38131	inactive
7	Xpac	DRSC18730	79061	2.05e5		2920	8269	inactive

Next records follow:
no.	gene	DRSC id	firefly Hh reporter signal, replicate 1	firefly Hh reporter signal, replicate 2	firefly Hh reporter signal, replicate 3	Renilla reference signal, replicate 1	Renilla reference signal, replicate 2	call
8	Ccp84Aa	DRSC12586	1.03e5	1.13e5		4641	3712	inactive
9	ms(2)34Fe	DRSC01905	1.19e5	51845		2986	4983	inactive
10	fbp	DRSC02077	1.75e5	1.12e5		6890	5019	inactive
11	CtsK1	DRSC08742	1.04e5			3351	2657	inactive
12	CG15020	DRSC08474	39561	37772		4918	3557	inactive
13	UQCR-14L	DRSC15288	2.26e5	1.93e5		8496	6486	inactive
14	wts	DRSC17096	41010	29325		1417	2067	inactive
15	CG34434	DRSC18134	91579	3.05e5		2693	8409	inactive
16	CG33523	DRSC09814	59168	46208		6370	3256	inactive
17	PGAP1	DRSC18286	99479	71875		2473	2070	inactive
18	wmd	DRSC04436	85208	48493		2640	1864	inactive
19	lncRNA:CR43409	DRSC01164	6.71e5	2.69e5		32033	10597	inactive
20	CG13460	DRSC10007	72101			1509	2070	inactive
21	Hus1-like	DRSC12353	1.16e5	1.74e5		3104	4951	inactive
22	fh	DRSC18430	76120	3.10e5		3005	10967	inactive
23	RpS20	DRSC16836	2.52e5	33035		23661	7468	active
